{"source": "paper PMC3441716", "key": {"[1]": {"biological_target": "T1, His-tagged Cnu (OriC-binding nucleoid protein), wild type (E. coli) (UniProt P64467)", "T1 sequence": "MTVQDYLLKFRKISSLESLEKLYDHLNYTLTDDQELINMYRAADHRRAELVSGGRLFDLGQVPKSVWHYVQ", "assay": "pull-down; H-NS co-eluting with His-tagged Cnu or CnuK9E from a nickel-affinity column during His-tag based purification (Fig. S1)"}, "[2]": {"biological_target": "T2, His-tagged CnuK9E (Cnu with a lysine to glutamic acid substitution at residue 9) (E. coli) (UniProt P64467)", "T2 sequence": "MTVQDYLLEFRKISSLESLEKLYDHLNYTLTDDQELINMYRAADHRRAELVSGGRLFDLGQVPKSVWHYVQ", "assay": "pull-down; H-NS co-eluting with His-tagged Cnu or CnuK9E from a nickel-affinity column during His-tag based purification (Fig. S1)"}}, "note": "These are yes or no findings as the source states them, for the method shown. In cells and extracts the contact can be indirect. Some results given as binding are weak or reduced against the parent protein; the word gives no strength. Where a sequence is shown, tags or fusion partners need not be part of it.", "data": [{"binder": "H-NS (histone-like nucleoid structuring protein) (protein, UniProt P0ACF8 1-137) MSEALKILNNIRTLRAQARECTLETLEEMLEKLEVVVNERREEESAAAAEVEERTRKLQQYREMLIADGIDPNELLNSLAAVKSGTKAKRAQRPAKYSYVDENGETKTWTGQGRTPAVIKKAMDEQGKSLDDFLIKQ", "values": [{"measurement": "binding", "setting": "[1]", "result": "binds"}, {"measurement": "binding", "setting": "[2]", "result": "binds"}]}]}
